Data as given in PubChem BioAssay AID1259405 (NCATS, 2018).

- Assay: 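Knock-downs that lift recombinant protein yield in hamster ovary cells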 (primary screen)
- System: Chinese hamster CHO-K1 ovary cells with stable secreted eGFP expression
- Knock-down reagent: single siRNA against mouse genes, 0.8 pmol siRNA per well (2 µl of 400 nM stock)
- Time to read-out: 3 days
- Measurement: 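Percent of the per-plate non-targeting control median for intracellular GFP per well by laser scanning cytometry and for cell viability by ATP luminescence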
- Scale: GFP, % of control: higher = more GFP per well, higher productivity; viability (ATP), % of control: higher = more viable cells (more ATP)
- Hit rule: 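a knock-down is called active if GFP reaches 120% or more of non-targeting control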
The whole screen tested about 50,000 reagents; this is an unselected part. In the full data, about 4,000 (8%) are marked active. 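Mouse siRNA library applied to hamster cells; one well for each siRNA.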 A number with no mark means an inactive call. The numbers tell different reagents against one gene apart. Reagent sequences are not shown.

| target gene | reagent no. | GFP, % of control | viability (ATP), % of control |
| --- | --- | --- | --- |
| 5730596B20Rik (RIKEN cDNA 5730596B20 gene) | 1 | 91.1 | 110 |
| 5730596B20Rik (RIKEN cDNA 5730596B20 gene) | 2 | 86.5 | 70.5 |
| 5730596B20Rik (RIKEN cDNA 5730596B20 gene) | 3 | 93.8 | 84.1 |
| Nherf2 (NHERF family PDZ scaffold protein 2) | 1 | 103 | 120 |
| Nherf2 (NHERF family PDZ scaffold protein 2) | 2 | 121 (active) | 89.6 |
| Mamstr | 1 | 57.7 | 58.1 |
| Mamstr | 2 | 82.9 | 77 |
| Mamstr | 3 | 132 (active) | 119 |
| Ccdc85a (coiled-coil domain containing 85A) | 1 | 78.4 | 80 |
| Ccdc85a (coiled-coil domain containing 85A) | 2 | 43.9 | 32.2 |
| Ccdc85a (coiled-coil domain containing 85A) | 3 | 62.6 | 77 |
| Gopc (golgi associated PDZ and coiled-coil motif containing) | 1 | 92.7 | 89.5 |
| Gopc (golgi associated PDZ and coiled-coil motif containing) | 2 | 66.6 | 80.4 |
| Gopc (golgi associated PDZ and coiled-coil motif containing) | 3 | 82.3 | 93.6 |
| Wdr93 (WD repeat domain 93) | 1 | 88.1 | 116 |
| Wdr93 (WD repeat domain 93) | 2 | 52.7 | 59.1 |
| Wdr93 (WD repeat domain 93) | 3 | 89.6 | 82.3 |
| Cd180 (CD180 antigen) | 1 | 88.3 | 109 |
| Cd180 (CD180 antigen) | 2 | 113 | 87 |
| Cd180 (CD180 antigen) | 3 | 77.3 | 86.1 |
| Eif5b (eukaryotic translation initiation factor 5B) | 1 | 47.6 | 23.4 |
| Eif5b (eukaryotic translation initiation factor 5B) | 2 | 45.3 | 43.4 |
| Eif5b (eukaryotic translation initiation factor 5B) | 3 | 105 | 93.5 |
| Dmc1 (DNA meiotic recombinase 1) | 1 | 39.9 | 69.6 |
| Dmc1 (DNA meiotic recombinase 1) | 2 | 50.1 | 61 |
| Dmc1 (DNA meiotic recombinase 1) | 3 | 67.7 | 55 |
| Fam220a (family with sequence similarity 220, member A) | 1 | 73.9 | 69 |
| Fam220a (family with sequence similarity 220, member A) | 2 | 68.5 | 63.9 |
| Fam220a (family with sequence similarity 220, member A) | 3 | 89 | 83.2 |
| Ecm1 (extracellular matrix protein 1) | 1 | 99.1 | 68.3 |
| Ecm1 (extracellular matrix protein 1) | 2 | 94.3 | 98.9 |
| Ecm1 (extracellular matrix protein 1) | 3 | 72.1 | 79.8 |
| Rab35 (RAB35, member RAS oncogene family) | 1 | 122 (active) | 123 |
| Rab35 (RAB35, member RAS oncogene family) | 2 | 130 (active) | 95.9 |
| Rab35 (RAB35, member RAS oncogene family) | 3 | 75 | 81.4 |
| Vamp7 (vesicle-associated membrane protein 7) | 1 | 83.4 | 107 |
| Vamp7 (vesicle-associated membrane protein 7) | 2 | 70.8 | 72.3 |
| St3gal3 (ST3 beta-galactoside alpha-2,3-sialyltransferase 3) | 1 | 14.2 | 14.1 |
| St3gal3 (ST3 beta-galactoside alpha-2,3-sialyltransferase 3) | 2 | 65.7 | 68.6 |
| St3gal3 (ST3 beta-galactoside alpha-2,3-sialyltransferase 3) | 3 | 39.3 | 66.1 |
| Or8g32 (olfactory receptor family 8 subfamily G member 32) | 1 | 68.5 | 71.6 |
| Or8g32 (olfactory receptor family 8 subfamily G member 32) | 2 | 92.8 | 46 |
| Or8g32 (olfactory receptor family 8 subfamily G member 32) | 3 | 81.6 | 122 |
| Rnf139 (ring finger protein 139) | 1 | 66.2 | 29.2 |
| Rnf139 (ring finger protein 139) | 2 | 117 | 73.5 |
| Rnf139 (ring finger protein 139) | 3 | 102 | 124 |
| Trim27 (tripartite motif-containing 27) | 1 | 70.8 | 86.4 |
| Trim27 (tripartite motif-containing 27) | 2 | 66.4 | 82.4 |
| Trim27 (tripartite motif-containing 27) | 3 | 89.7 | 102 |
| Cpe (carboxypeptidase E) | 1 | 148 (active) | 128 |
| Cpe (carboxypeptidase E) | 2 | 70.6 | 64.5 |
| Cpe (carboxypeptidase E) | 3 | 57.3 | 50.7 |
| Cpe (carboxypeptidase E) | 4 | 113 | 95.1 |
| Cpe (carboxypeptidase E) | 5 | 122 (active) | 96.8 |
| Cpe (carboxypeptidase E) | 6 | 95.7 | 68.8 |
| Cimap1c (ciliary microtubule associated protein 1C) | 1 | 94.3 | 68.1 |
| Cimap1c (ciliary microtubule associated protein 1C) | 2 | 82.9 | 68.1 |
| Cimap1c (ciliary microtubule associated protein 1C) | 3 | 84 | 83.9 |
| Nrk (Nik related kinase) | 1 | 79 | 76.6 |
| Apeh (acylpeptide hydrolase) | 1 | 76.9 | 76.2 |
| Apeh (acylpeptide hydrolase) | 2 | 39.3 | 50.6 |
| Apeh (acylpeptide hydrolase) | 3 | 75.5 | 53.8 |
| Rgs5 (regulator of G-protein signaling 5) | 1 | 95.8 | 81.5 |
| Rgs5 (regulator of G-protein signaling 5) | 2 | 98.3 | 87.2 |
| Rgs5 (regulator of G-protein signaling 5) | 3 | 85 | 86.2 |
| Uchl5 (ubiquitin carboxyl-terminal esterase L5) | 1 | 94.3 | 114 |
| Uchl5 (ubiquitin carboxyl-terminal esterase L5) | 2 | 55 | 51.1 |
| Uchl5 (ubiquitin carboxyl-terminal esterase L5) | 3 | 41.4 | 56.7 |
| Gm266 (predicted gene 266) | 1 | 72 | 73.2 |
| Gm266 (predicted gene 266) | 2 | 48.1 | 48.5 |
| Gm266 (predicted gene 266) | 3 | 79.2 | 65.6 |
| Phex (phosphate regulating endopeptidase homolog, X-linked) | 1 | 110 | 90.7 |
| Phex (phosphate regulating endopeptidase homolog, X-linked) | 2 | 64.1 | 65.1 |
| Phex (phosphate regulating endopeptidase homolog, X-linked) | 3 | 51.5 | 57.3 |
| Galnt3 (polypeptide N-acetylgalactosaminyltransferase 3) | 1 | 52.4 | 86.2 |
| Galnt3 (polypeptide N-acetylgalactosaminyltransferase 3) | 2 | 80.5 | 138 |
| Galnt3 (polypeptide N-acetylgalactosaminyltransferase 3) | 3 | 90.1 | 106 |
| Garre1 (granule associated Rac and RHOG effector 1) | 1 | 92.2 | 60.7 |
| Garre1 (granule associated Rac and RHOG effector 1) | 2 | 116 | 65.4 |
| Garre1 (granule associated Rac and RHOG effector 1) | 3 | 88.4 | 100 |
| Ifitm6 (interferon induced transmembrane protein 6) | 1 | 77.1 | 69.3 |
| Ifitm6 (interferon induced transmembrane protein 6) | 2 | 80.2 | 82.1 |
| Ifitm6 (interferon induced transmembrane protein 6) | 3 | 83.1 | 81.6 |
| St3gal4 (ST3 beta-galactoside alpha-2,3-sialyltransferase 4) | 1 | 74.8 | 112 |
| St3gal4 (ST3 beta-galactoside alpha-2,3-sialyltransferase 4) | 2 | 115 | 102 |
| St3gal4 (ST3 beta-galactoside alpha-2,3-sialyltransferase 4) | 3 | 91.2 | 123 |
| Tle1 (transducin-like enhancer of split 1) | 1 | 92.6 | 70 |
| Tle1 (transducin-like enhancer of split 1) | 2 | 45.9 | 70.3 |
| Tle1 (transducin-like enhancer of split 1) | 3 | 89.7 | 98.2 |
| Smgc (submandibular gland protein C) | 1 | 83.9 | 70.6 |
| Smgc (submandibular gland protein C) | 2 | 140 (active) | 91.5 |
| Smgc (submandibular gland protein C) | 3 | 98.5 | 60.9 |
| Tnni1 (troponin I, skeletal, slow 1) | 1 | 58.6 | 54.5 |
| Tnni1 (troponin I, skeletal, slow 1) | 2 | 36.6 | 30.4 |
| Tnni1 (troponin I, skeletal, slow 1) | 3 | 79.6 | 55.9 |
| Ankrd13a (ankyrin repeat domain 13a) | 1 | 72.4 | 78.1 |
| Ankrd13a (ankyrin repeat domain 13a) | 2 | 112 | 105 |
| Ankrd13a (ankyrin repeat domain 13a) | 3 | 217 (active) | 72.1 |
| Ccdc3 (coiled-coil domain containing 3) | 1 | 65.5 | 64.3 |
| Ccdc3 (coiled-coil domain containing 3) | 2 | 86.6 | 83.8 |
| Ccdc3 (coiled-coil domain containing 3) | 3 | 113 | 114 |
| Calcr (calcitonin receptor) | 1 | 57.7 | 41.5 |
| Calcr (calcitonin receptor) | 2 | 84.9 | 88.1 |
| Calcr (calcitonin receptor) | 3 | 95.6 | 68.8 |
| Pcdh12 (protocadherin 12) | 1 | 86.8 | 82.1 |
| Pcdh12 (protocadherin 12) | 2 | 59.4 | 61.4 |
| S100a5 (S100 calcium binding protein A5) | 1 | 98.3 | 113 |
| S100a5 (S100 calcium binding protein A5) | 2 | 78 | 81.9 |

Records listed so far with an active call, once more:
| target gene | reagent no. | GFP, % of control | viability (ATP), % of control |
| --- | --- | --- | --- |
| Nherf2 (NHERF family PDZ scaffold protein 2) | 2 | 121 (active) | 89.6 |
| Mamstr | 3 | 132 (active) | 119 |
| Rab35 (RAB35, member RAS oncogene family) | 1 | 122 (active) | 123 |
| Rab35 (RAB35, member RAS oncogene family) | 2 | 130 (active) | 95.9 |
| Cpe (carboxypeptidase E) | 1 | 148 (active) | 128 |
| Cpe (carboxypeptidase E) | 5 | 122 (active) | 96.8 |
| Smgc (submandibular gland protein C) | 2 | 140 (active) | 91.5 |
| Ankrd13a (ankyrin repeat domain 13a) | 3 | 217 (active) | 72.1 |
